These results are taken from publication PMC11203643.

Sequences of proteins named here, by UniProt entry; tags and fusion partners are left off.
UniProt P32121: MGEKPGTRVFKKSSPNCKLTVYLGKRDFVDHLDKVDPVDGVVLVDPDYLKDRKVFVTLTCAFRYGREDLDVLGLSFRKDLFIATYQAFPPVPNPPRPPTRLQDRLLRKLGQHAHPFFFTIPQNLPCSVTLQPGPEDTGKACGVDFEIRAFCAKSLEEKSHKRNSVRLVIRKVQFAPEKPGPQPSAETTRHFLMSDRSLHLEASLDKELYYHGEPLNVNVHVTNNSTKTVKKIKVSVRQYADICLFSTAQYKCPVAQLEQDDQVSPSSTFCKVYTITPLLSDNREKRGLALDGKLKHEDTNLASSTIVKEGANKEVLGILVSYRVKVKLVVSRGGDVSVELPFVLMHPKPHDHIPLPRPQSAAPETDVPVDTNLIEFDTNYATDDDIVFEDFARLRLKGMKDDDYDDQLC

This assay deals with T1, LPA3 receptor fused at the carboxyl terminus with eGFP (LPA3–eGFP construct) (human) (UniProt Q9UBY5).
T1 sequence: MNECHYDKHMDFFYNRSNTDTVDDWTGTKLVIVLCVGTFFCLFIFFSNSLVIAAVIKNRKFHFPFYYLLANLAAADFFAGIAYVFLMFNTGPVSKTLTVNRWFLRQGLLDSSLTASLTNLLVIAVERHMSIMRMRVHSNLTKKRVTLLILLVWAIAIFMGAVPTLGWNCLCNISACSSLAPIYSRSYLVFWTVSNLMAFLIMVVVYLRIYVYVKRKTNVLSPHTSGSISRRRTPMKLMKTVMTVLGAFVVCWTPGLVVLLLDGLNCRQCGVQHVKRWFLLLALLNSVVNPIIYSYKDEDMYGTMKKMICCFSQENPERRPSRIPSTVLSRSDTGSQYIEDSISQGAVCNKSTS
The experiment in a line: FRET or BRET; FRET between LPA3–eGFP (donor, excited at 488 nm) and β-arrestin 2–mCherry (emission at 610 nm) in Flp-In TREx HEK293 cells, confocal microscopy; cells challenged with 1 µM LPA or 1 µM PMA for up to 60 min; FRET index normalised to time 0 as 100%. On the technique in general: BRET reads energy transfer from a luciferase to a nearby fluorophore.

No constants are given. Whether binding was seen depends on the method and setting. In cells and extracts the contact can be indirect. Some results given as binding are weak or reduced against the parent protein; the word gives no strength. Sequences can lack the tags named with a protein.

Regarding “β-arrestin 2 mCherry-tagged (from UniProt P32121 1-409)”, the binding entry is reported as “binds”.
